No constants are given. Whether binding was seen depends on the method and setting.
Molecular target: mouse Juno, complete ectodomain (residues G20-A221), soluble protein (mouse) (UniProt Q9EQF4)
Assay: SEC; affinity-purified Juno after enzymatic trimming of N-glycans; both purified

- binding: no binding
B1: mouse Juno, complete ectodomain (residues G20-A221), soluble protein (domain or fragment, UniProt Q9EQF4 20-221)
chain: GDKLLSVCMNSKRHKQEPGPEDELYQECRPWEDNACCTRSTSWEAHLEEPLLFNFSMMHCGLLTPACRKHFIQAICFHECSPNLGPWIQPVVPNGQEEQRVWGVPLCQEDCEDWWRACHSSLTCKSNWLHGWDWSEEKKHCPAHEPCLPFSYHFPTPDDLCEKIWNNTFKASPERRNSGRCLQKWFEPTLSNPNVEVALHFA
modifications: N-glycans enzymatically trimmed; GlcNAc attached to N185
